{
  "source": "patent US20070142433A1",
  "about": "“Angiogenesis-affecting compounds and methods of use thereof” (priority 2004, published 2007)",
  "key": {"[1]": {"system": "NHDF (human dermal fibroblasts) scattering", "assay": "NHDF spheroid evaluation (fibroblast scattering)", "assay_type": "cell-based", "conditions": "NHDF spheroids in collagen gel, no supplements, 24 hours", "description": "Where the test compound was classified as an inhibitor or stimulator, a second screening process was performed. In the second screen, the test substance was thawed and 5 mM of the substance was diluted to a 10 fold concentrated working solution (100 μM) in endothelial cell basal medium. No supplements were used in the basal medium.\nInstead of HUVEC, spheroids were prepared by pipetting 400 human dermal fibroblasts (NHDF) into each well of nonadhesive 96-well plates. Prior to use the NHDF were cultured according to the supplier's instructions (PromoCell, Heidelberg, Germany). The cells were allowed to aggregate overnight into spheroids (Korff and Augustin: J Cell Biol 143: 1341-52, 1998). After aggregation, 48 NHDF spheroids were harvested. Each of the harvested spheroids was seeded in 900 μl of methocel-collagen solution and pipetted into an individual well of a 24-well plate to allow collagen gel polymerization.\nThirty (30) minutes after seeding, the test substance was added. The working dilution (10 fold concentration) was utilized, 100 μl was pipetted on top of the polymerized collagen gel in each well. The plates were then incubated at 37° C. for 24 hours. At the end of the incubation period the plates were fixed by adding 1 ml paraformaldehyde (10%) to each well.\nThe NHDF spheroids were microscopically assayed for fibroblast scattering intensity. […] For exemplary results, see FIG. 1."}, "HUVEC sprouting": {"system": "HUVEC sprouting", "assay": "Primary angiogenesis screen, HUVEC spheroid evaluation (EC sprouting)", "assay_type": "cell-based, human", "conditions": "HUVEC spheroids in collagen gel, VEGF-supplemented, 24 hours", "description": "A test substance was selected for evaluation in angiogenesis screens. The test substance was synthesized or obtained as appropriate and stored at −20° C. in DMSO. Prior to use, the test substance was thawed and 5 mM of the substance was diluted to a 10 fold concentrated working solution (100 μM) in endothelial cell basal medium. The basal medium fraction was supplemented with 25 ng VEGF/100 μl for the stimulation of HUVEC sprouting.\nThe screening procedures were modified versions of those described by Korff and Augustin (J Cell Sci 112: 3249-58, 1999). By way of summary, spheroids were prepared by pipetting 400 human umbilical vein endothelial cells (HUVEC) into each well of nonadhesive 96-well plates. Prior to use the HUVEC were cultured according to the supplier's instructions (PromoCell, Heidelberg, Germany). The cells were allowed to aggregate overnight into spheroids (Korff and Augustin: J Cell Biol 143: 1341-52, 1998). After aggregation, 48 HUVEC spheriods were harvested. Each harvested spheroid was seeded in 900 μl of methocel-collagen solution and pipetted into an individual well of a 24-well plate to allow collagen gel polymerization.\nThirty (30) minutes after seeding, the test substance was added. The working dilution (10 fold concentration) was utilized, 100 μl was pipetted on top of the polymerized collagen gel in each well. […]"}},
  "note": "At least one compound was matched to its structure with a doubt left.",
  "data": [
    {"smiles": "CC(C)C(=O)Nc1ccc([N+](=O)[O-])c(C(F)(F)F)c1", "note": "[Flutamide]", "values": [
      {"measurement": "fibroblast scattering (invasion) effect", "setting": "[1]", "value": "no fibroblast invasion effect"},
      {"measurement": "EC sprouting intensity compared with VEGF control", "setting": "HUVEC sprouting", "value": "increased sprouting stimulation"}
    ]}
  ]
}
